From doi:10.1101/2021.03.28.437395
No constants are given. Whether binding was seen depends on the method and setting. Some results given as binding are weak or reduced against the parent protein; the word gives no strength.

Protein sequences, listed by entry. Tags and fused reporters are not part of them.
UniProt Q9XEB5, whole entry: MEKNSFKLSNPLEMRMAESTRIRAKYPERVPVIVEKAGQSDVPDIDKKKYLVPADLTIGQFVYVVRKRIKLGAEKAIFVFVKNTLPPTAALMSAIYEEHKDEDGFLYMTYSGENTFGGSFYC

Assays:
Test in all cases: two-hybrid
ATG8c = target: T1, ATG8c (UniProt Q8S927)
T1 sequence: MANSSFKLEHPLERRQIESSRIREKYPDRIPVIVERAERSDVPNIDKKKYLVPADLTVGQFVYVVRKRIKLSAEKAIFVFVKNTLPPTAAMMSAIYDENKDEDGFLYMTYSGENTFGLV

ATG8d = target: T2, ATG8d (UniProt Q9SL04)
T2 sequence: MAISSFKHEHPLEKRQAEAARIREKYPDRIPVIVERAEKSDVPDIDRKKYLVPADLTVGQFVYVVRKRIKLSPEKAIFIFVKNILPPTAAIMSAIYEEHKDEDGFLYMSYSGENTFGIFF

ATG8a = target: T3, ATG8a (UniProt Q8LEM4)
T3 sequence: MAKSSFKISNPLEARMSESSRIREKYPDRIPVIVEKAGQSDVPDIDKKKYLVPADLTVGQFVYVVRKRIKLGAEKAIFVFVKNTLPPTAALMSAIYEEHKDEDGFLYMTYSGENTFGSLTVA

ATG8f = target: T4, ATG8f (UniProt Q8VYK7)
T4 sequence: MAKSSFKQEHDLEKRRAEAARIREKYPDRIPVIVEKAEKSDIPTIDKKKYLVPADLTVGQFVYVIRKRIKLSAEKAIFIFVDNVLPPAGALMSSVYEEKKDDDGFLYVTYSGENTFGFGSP

ATG8e = target: T5, ATG8e (UniProt Q8S926)
T5 sequence: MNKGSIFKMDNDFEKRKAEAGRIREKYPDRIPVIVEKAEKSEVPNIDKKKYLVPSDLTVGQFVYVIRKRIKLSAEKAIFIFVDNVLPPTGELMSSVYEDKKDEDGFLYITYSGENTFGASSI

ATG8b = ATG8b (UniProt Q9XEB5)

Measured: binding

B1: Turnip crinkle virus (TCV) capsid protein P38 (protein, UniProt P06663 1-351)
chain: MENDPRVRKFASDGAQWAIKWQKKGWSTLTSRQKQTARAAMGIKLSPVAQPVQKVTRLSAPVALAYREVSTQPRVSTARDGITRSGSELITTLKKNTDTEPKYTTAVLNPSEPGTFNQLIKEAAQYEKYRFTSLRFRYSPMSPSTTGGKVALAFDRDAAKPPPNDLASLYNIEGCVSSVPWTGFILTVPTDSTDRFVADGISDPKLVDFGKLIMATYGQGANDAAQLGEVRVEYTVQLKNRTGSTSDAQIGDFAGVKDGPRLVSWSKTKGTAGWEHDCHFLGTGNFSLTLFYEKAPVSGLENADASDFSVLGEAAAGSVQWAGVKVAERGQGVKMVTTEEQPKGKWQALRI
binds: all assays above
